From PubChem BioAssay AID248 (DTP/NCI, 2004)
The list shows only some results of the screen, not a fair sample: it is rich in T/C values a quarter to a half above the control, in often repeated tests (any T/C) and in doses without a T/C. Other doses and runs of a compound stand elsewhere. T/C: endpoint of the treated group in % of that of the vehicle group. Some doses have a count of surviving animals in place of a T/C: the source files T/C as zero there, which appears to mark a toxic dose or a test without result, not a measured value. Some doses without a T/C left all or most animals alive at the check, yet need not have been tolerated: the source hardly ever lists a survival T/C far under the control, and the zero likely stands for such cases as well. Counts of survivors are from the toxicity check (mostly the fifth day) where no day follows; animals may have died later. Schedule codes are those of the source, read here as Q, the interval in days (D) or hours (H), X, the number of doses. Some schedules carry Z or #; the key to these is not given. For survival time, this PubChem deposit counts one and a half times the control or more as active, and values a quarter to a half above the control carry no call in these data; other NCI protocols may use other cut-offs. Some entries hold several experiments; the values are given in rising order.

System: L1210 leukemia ip in BDF1 mice, survival T/C
Test: NCI In Vivo Anticancer Drug Screen. Data for tumor model L1210 Leukemia (intraperitoneal) in B6D2F1 (BDF1) mice
Conditions: T/C endpoint: mean survival time, higher T/C = longer survival
[1] = dose: 400.0 mg/kg/injection, schedule: Q04DX003 (ip), vehicle: Klucel (hydroxypropylcellulose) (HPC)
[2] = dose: 100.0 mg/kg/injection, schedule: Q01DX Z (ip), vehicle: carboxymethylcellulose (CMC)
[3] = dose: 400.0 mg/kg/injection, schedule: Q04DX003 (ip), vehicle: saline

COc1cc2c3c(c4cc(OC)c(OC)cc4c2cc1OC)CN1CCC[C@H]1C3
T/C (dose: 12.5 mg/kg/injection, schedule: Q01DX015 (ip), vehicle: water): 131 % of control | survivor count (dose: 14.0 mg/kg/injection, schedule: Q01DX015 (ip), vehicle: water): 0 of 6 | T/C (dose: 15.0 mg/kg/injection, schedule: Q01DX Z (ip), vehicle: water): 130 % of control | survivor count (dose: 16.0 mg/kg/injection, schedule: Q01DX Z (ip), vehicle: water): 1 of 6 | survivor count (dose: 20.0 mg/kg/injection, schedule: Q01DX015 (ip), vehicle: water): 0 of 6 | survivor count (dose: 30.0 mg/kg/injection, schedule: Q01DX015 (ip), vehicle: water): 0 of 6 | survivor count (dose: 30.0 mg/kg/injection, schedule: Q01DX Z (ip), vehicle: water): 4 of 6 | survivor count (dose: 40.0 mg/kg/injection, schedule: Q01DX015 (ip), vehicle: water): 0 of 6 | survivor count (dose: 50.0 mg/kg/injection, schedule: Q01DX015 (ip), vehicle: water): 0 of 6 | survivor count (dose: 60.0 mg/kg/injection, schedule: Q01DX Z (ip), vehicle: water): 0 of 6 | survivor count (dose: 60.0 mg/kg/injection, schedule: Q02DX Z (ip), vehicle: water): 4 of 6 | T/C (dose: 62.5 mg/kg/injection, schedule: Q01DX Z (ip), vehicle: saline): 138 % of control | T/C (dose: 125.0 mg/kg/injection, schedule: Q01DX Z (ip), vehicle: saline): 144 % of control | T/C (dose: 500.0 mg/kg/injection, schedule: Q01DX Z (ip), vehicle: saline): 130 % of control

CC(C)c1ccc(C(=O)O)cc1S(=O)(=O)F
survivor count (dose: 400.0 mg/kg/injection, schedule: Q01DX009 (ip), vehicle: saline with Tween-80): 0 of 6

Cc1ccccc1CN1CCN(CCOC(c2ccccc2)c2ccccc2Cl)CC1 (centres undefined)
survivor count (dose: 100.0 mg/kg/injection, schedule: Q01DX009 (ip), vehicle: Klucel (hydroxypropylcellulose) (HPC)): 3 of 6 | survivor count (dose: 200.0 mg/kg/injection, schedule: Q01DX009 (ip), vehicle: Klucel (hydroxypropylcellulose) (HPC)): 1 of 6 | survivor count [1]: 4 of 4

COc1nc(N)c(C#N)cc1C#N
survivor count (dose: 200.0 mg/kg/injection, schedule: Q04DX003 (ip), vehicle: Klucel (hydroxypropylcellulose) (HPC)): 0 of 6 | survivor count [1]: 0 of 6

CN=C(N)c1ccc(NC(=O)c2ccc(C(=O)Nc3ccc(C(N)=NC)cc3)c(Cl)c2)cc1
T/C (dose: 3.75 mg/kg/injection, schedule: Q01DX Z (ip), vehicle: saline): 135 % of control | T/C (dose: 15.0 mg/kg/injection, schedule: Q01DX Z (ip), vehicle: other): 144 % of control | survivor count (dose: 30.0 mg/kg/injection, schedule: Q01DX Z (ip), vehicle: other): 5 of 6 | survivor count (dose: 60.0 mg/kg/injection, schedule: Q01DX Z (ip), vehicle: other): 0 of 6 | survivor count (dose: 120.0 mg/kg/injection, schedule: Q01DX Z (ip), vehicle: other): 0 of 6

C[n+]1ccccc1/C=C/c1csc2ccccc12
survivor count (dose: 100.0 mg/kg/injection, schedule: Q01DX001 (ip), vehicle: carboxymethylcellulose (CMC)): 0 of 4 | survivor count (dose: 200.0 mg/kg/injection, schedule: Q01DX001 (ip), vehicle: carboxymethylcellulose (CMC)): 0 of 4 | survivor count (dose: 400.0 mg/kg/injection, schedule: Q01DX001 (ip), vehicle: carboxymethylcellulose (CMC)): 1 of 4

O=C(Nc1ccccc1)Oc1ccc(Cl)cc1Cc1ccccc1
survivor count (dose: 200.0 mg/kg/injection, schedule: Q04DX002 (ip), vehicle: Klucel (hydroxypropylcellulose) (HPC)): 3 of 3

COc1cc(-c2ccc(Nc3ccccc3C(=O)O)c(OC)c2)ccc1Nc1ccccc1C(=O)O
T/C (dose: 44.0 mg/kg/injection, schedule: Q01DX Z (ip), vehicle: saline): 127 % of control | survivor count (dose: 65.0 mg/kg/injection, schedule: Q01DX Z (ip), vehicle: carboxymethylcellulose (CMC)): 3 of 6 | T/C (dose: 98.0 mg/kg/injection, schedule: Q01DX Z (ip), vehicle: saline): 134 % of control | survivor count (dose: 100.0 mg/kg/injection, schedule: Q01DX006 (iv), vehicle: carboxymethylcellulose (CMC)): 1 of 6 | T/C [2]: 101, 103, 129 % of control | survivor count [2]: 0 of 6 | T/C (dose: 100.0 mg/kg/injection, schedule: Q01DX Z (ip), vehicle: saline): 132 % of control | survivor count (dose: 149.0 mg/kg/injection, schedule: Q01DX Z (ip), vehicle: carboxymethylcellulose (CMC)): 0 of 6 | survivor count (dose: 150.0 mg/kg/injection, schedule: Q01DX Z (ip), vehicle: carboxymethylcellulose (CMC)): 0 of 6 | T/C (dose: 150.0 mg/kg/injection, schedule: Q01DX Z (ip), vehicle: saline): 135 % of control | survivor count (dose: 200.0 mg/kg/injection, schedule: Q01DX006 (iv), vehicle: carboxymethylcellulose (CMC)): 0 of 6 | survivor count (dose: 223.0 mg/kg/injection, schedule: Q01DX Z (ip), vehicle: saline): 3 of 6 | survivor count (dose: 400.0 mg/kg/injection, schedule: Q01DX006 (iv), vehicle: carboxymethylcellulose (CMC)): 0 of 6 | survivor count (dose: 400.0 mg/kg/injection, schedule: Q01DX Z (ip), vehicle: carboxymethylcellulose (CMC)): 6 of 6 | survivor count (dose: 440.0 mg/kg/injection, schedule: Q01DX Z (ip), vehicle: saline): 2 of 7 | survivor count (dose: 800.0 mg/kg/injection, schedule: Q01DX015 (ip), vehicle: saline): 4 of 6

Cc1c(O)c2ccc3ccccc3c2oc1=O
survivor count [3]: 1 of 3

NC(=NCc1ccccc1)c1ccc(NC(=O)c2ccc(C(=O)Nc3ccc(C(N)=NCc4ccccc4)cc3)cc2)cc1
survivor count (dose: 14.0 mg/kg/injection, schedule: Q01DX Z (ip), vehicle: water): 4 of 6 | survivor count (dose: 28.0 mg/kg/injection, schedule: Q01DX Z (ip), vehicle: water): 0 of 6 | survivor count (dose: 56.0 mg/kg/injection, schedule: Q01DX Z (ip), vehicle: carboxymethylcellulose (CMC)): 0 of 6 | survivor count (dose: 112.0 mg/kg/injection, schedule: Q01DX Z (ip), vehicle: carboxymethylcellulose (CMC)): 0 of 6 | survivor count (dose: 225.0 mg/kg/injection, schedule: Q01DX Z (ip), vehicle: carboxymethylcellulose (CMC)): 0 of 6 | survivor count (dose: 450.0 mg/kg/injection, schedule: Q01DX Z (ip), vehicle: carboxymethylcellulose (CMC)): 0 of 6

COc1ccc([N+](=O)[O-])cc1CNCCCl
survivor count (dose: 200.0 mg/kg/injection, schedule: Q01DX001 (ip), vehicle: Klucel (hydroxypropylcellulose) (HPC)): 0 of 6

COc1cc([N+](=O)[O-])ccc1NC(=O)N(C)Cc1ccccc1
survivor count (dose: 200.0 mg/kg/injection, schedule: Q01DX001 (ip), vehicle: saline with Tween-80): 6 of 6

Brc1csc2ncccc12
survivor count [1]: 4 of 6

CCCc1ccccc1O
survivor count (dose: 400.0 mg/kg/injection, schedule: Q04DX003 (ip), vehicle: alcohol): 1 of 6

Cc1ncc(CCl)c(CCl)c1O
survivor count [3]: 1 of 6

CC(/C=C/C(O)=C1/C(=O)CNC1=O)=C\[C@@H](C)[C@H]1O[C@@]2(C)O[C@H](C(=O)[C@@H]3O[C@@]32C)[C@@H]1C
survivor count (dose: 200.0 mg/kg/injection, schedule: Q04DX003 (ip), vehicle: acetone): 6 of 6 | survivor count (dose: 400.0 mg/kg/injection, schedule: Q04DX003 (ip), vehicle: acetone): 6 of 6

COC(=O)c1ccc(C(=O)OC)[n+]([O-])c1
T/C [3]: 133 % of control

CC1OCC(C[N+](C)(C)C)O1 (centres undefined)
T/C (dose: 0.37 mg/kg/injection, schedule: Q04DX002 (ip), vehicle: saline): 141 % of control | survivor count (dose: 3.0 mg/kg/injection, schedule: Q04DX002 (ip), vehicle: saline): 1 of 3 | survivor count (dose: 6.0 mg/kg/injection, schedule: Q04DX002 (ip), vehicle: saline): 0 of 3 | survivor count (dose: 12.5 mg/kg/injection, schedule: Q04DX002 (ip), vehicle: saline): 0 of 3 | survivor count (dose: 25.0 mg/kg/injection, schedule: Q04DX002 (ip), vehicle: saline): 0 of 3 | survivor count (dose: 50.0 mg/kg/injection, schedule: Q04DX002 (ip), vehicle: saline): 0 of 3 | survivor count (dose: 100.0 mg/kg/injection, schedule: Q04DX002 (ip), vehicle: saline): 0 of 3 | survivor count (dose: 200.0 mg/kg/injection, schedule: Q04DX002 (ip), vehicle: saline): 0 of 3 | survivor count (dose: 400.0 mg/kg/injection, schedule: Q04DX002 (ip), vehicle: saline): 3 of 3
